Record: PubChem BioAssay AID504744 (Drosophila RNAi Screening Center, 2011)
The deposit covers about 23,000 reagents; shown is a random part of those with a known target gene and a result. Of all reagents, 98 (0.43%) are marked active. 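Only hit calls are given; the phospho-dAkt signals, z-scores and hit direction were not deposited.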 Names joined by + are all predicted targets of the reagent.

Test: 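Find genes whose loss alters insulin-driven dAkt phosphorylation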 (primary screen)
Cells: Drosophila Kc167 cells
Reagents: long dsRNA against Drosophila genes, 250 ng dsRNA per well of a 384-well plate
Time to read-out: 3 days of knock-down, then overnight serum-free starvation before stimulation
Treatment: bovine insulin at 387 nM for 10 minutes after 12 h without serum
Measured: 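In-cell antibody fluorescence for phospho-dAkt in each well over DNA-dye signal, with log2 residuals expressed as z-scores adjusted for cell count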
Call rule: 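Hit in the insulin screen when the two-replicate mean z-score is more extreme than plus or minus 2.5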

| gene | amplicon | call |
| --- | --- | --- |
| Pex16 (GeneID 40293) | DRSC11750 | inactive |
| Best1 (GeneID 53431) | DRSC16909 | inactive |
| CG33299 (GeneID 2768912) | DRSC01085 | inactive |
| Ppcs (GeneID 42295) | DRSC14127 | inactive |
| Vha68-2 (GeneID 45012) | DRSC02721 | inactive |
| CG11356 (GeneID 32178) | DRSC19401 | inactive |
| CG40053 (retired record) (GeneID 3355092) | DRSC20833 | inactive |
| CG32533 (GeneID 32933) | DRSC19443 | inactive |
| CG32533 (GeneID 32933) | DRSC19553 | inactive |
| CG6675 (GeneID 35439) | DRSC03735 | inactive |
| Ugt36A1 (GeneID 44058) | DRSC00748 | inactive |
| CG9044 (GeneID 33825) | DRSC03130 | inactive |
| thetaTry (GeneID 36218) | DRSC07705 | inactive |
| CG14380 (GeneID 41621) | DRSC14840 | inactive |
| CYTB (retired record) (GeneID 192472) | DRSC21272 | inactive |
| CG32548 (GeneID 32826) | DRSC19627 | inactive |
| CG32548 (GeneID 32826) | DRSC19982 | inactive |
| Rpn1 (GeneID 40174) | DRSC11274 | inactive |
| bgcn (GeneID 47873) | DRSC04062 | inactive |
| bgcn (GeneID 47873) | DRSC04063 | inactive |
| CG8620 (GeneID 50310) | DRSC11020 | inactive |
| CG10589 (GeneID 40313) | DRSC11629 | inactive |
| CG6961 + CG18259 | DRSC19799 | inactive |
| CG6961 + CG18259 | DRSC20019 | inactive |
| tsl (GeneID 42564) | DRSC17090 | inactive |
| Osi12 (GeneID 40766) | DRSC12177 | inactive |
| Usf (GeneID 31384) | DRSC18129 | inactive |
| crc (GeneID 47767) | DRSC03513 | inactive |
| UK114 (GeneID 34897) | DRSC01973 | inactive |
| CG32074 (GeneID 317842) | DRSC22246 | inactive |
| ovo (GeneID 31429) | DRSC18050 | inactive |
| ovo (GeneID 31429) | DRSC18812 | inactive |
| AP-1gamma (GeneID 31842) | DRSC18433 | inactive |
| CG6527 (GeneID 39197) | DRSC10659 | inactive |
| Bgb (GeneID 38198) | DRSC08148 | inactive |
| CG13474 (GeneID 39600) | DRSC10018 | inactive |
| GstD8 (GeneID 48341) | DRSC16689 | inactive |
| CG4752 (GeneID 37569) | DRSC04486 | inactive |
| Pka-R2 (GeneID 36041) | DRSC07509 | inactive |
| Or59b (GeneID 37715) | DRSC04632 | inactive |
| CG3270 (GeneID 35575) | DRSC04988 | inactive |
| onecut (GeneID 45816) | DRSC17175 | inactive |
| CG4751 (GeneID 34551) | DRSC02776 | inactive |
| Ocrl (GeneID 31157) | DRSC18576 | inactive |
| Scsalpha1 (GeneID 38447) | DRSC08698 | inactive |
| Hat1 (GeneID 40716) | DRSC12298 | inactive |
| CG15531 (GeneID 43592) | DRSC15068 | inactive |
| exu (GeneID 37345) | DRSC07615 | inactive |
| CG5757 (GeneID 37062) | DRSC06951 | inactive |
| Odj (GeneID 42145) | DRSC16234 | inactive |
| Agps (GeneID 36669) | DRSC05984 | inactive |
| Or69a (GeneID 2768964) | DRSC11243 | inactive |
| CG10098 (GeneID 40851) | DRSC12509 | inactive |
| Mad (GeneID 33529) | DRSC00759 | inactive |
| CG9222 (GeneID 33867) | DRSC03158 | inactive |
| CG31496 (GeneID 326145) | DRSC12547 | inactive |
| Ilp1 (GeneID 39149) | DRSC10174 | inactive |
| ari-1 (GeneID 32796) | DRSC20308 | inactive |
| ari-1 (GeneID 32796) | DRSC21603 | inactive |
| CG12594 (GeneID 41416) | DRSC14532 | inactive |
| mGluR (GeneID 43838) | DRSC17215 | inactive |
| hubl (GeneID 246567) | DRSC06825 | inactive |
| Blos2 (GeneID 39234) | DRSC10147 | inactive |
| NimB2 (GeneID 260645) | DRSC22645 | inactive |

7 entries from above in another layout:
gene	amplicon	call
CG32548 (GeneID 32826)	DRSC19627	inactive
CG32548 (GeneID 32826)	DRSC19982	inactive
Rpn1 (GeneID 40174)	DRSC11274	inactive
bgcn (GeneID 47873)	DRSC04062	inactive
bgcn (GeneID 47873)	DRSC04063	inactive
CG8620 (GeneID 50310)	DRSC11020	inactive
CG10589 (GeneID 40313)	DRSC11629	inactive
